Data: patent US20070079447A1, “Insect repellent textile” (Beiersdorf AG, priority 2003, published 2007)
For at least one compound, name, drawing or mass did not settle the structure.

Assay: Polarity: interfacial tension toward water;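 note: polarity expressed as oil–water interfacial tension in mN/m, lower values meaning a more polar oil, with medium-polar lipids falling between 20 and 30 mN/m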
Type: physicochemical

| SMILES | Polarity (polar lipids) [mN/m] | Polarity (medium-polar lipids) [mN/m] |
| --- | --- | --- |
| CCCCCCCCC(CO)CCCC (centres unmarked) [Isofol 12, Butyl Octanol] | 17.4 | – |
| CCCCCCCCCCC(CO)CCCCCC (centres unmarked) [Isofol 16, Hexyl Decanol] | – | 24.3 |
